The list is a part of this screen's results and no random one: it gathers some chemical classes. Other doses and runs of a compound may be missing. T/C gives the treated animals as a percentage of the vehicle group. Where survival is the endpoint, the PubChem record calls one and a half times the control and up active, and a quarter to a half above the control has no call in these data; cut-offs in other NCI protocols can differ. Some entries show no survivor count and are marked so; the dose need not have been tolerated. Schedules are NCI's codes, read here as Q, the interval in days (D) or hours (H), X, the number of doses. Some schedule codes hold Z or #, which are not explained here.
Tested on: BDF1 mice, L1210/MTX-resistant leukemia ip, survival T/C
Assay: NCI In Vivo Anticancer Drug Screen. Data for tumor model L1210 Leukemia resistant to Methotrexate; NSC 740 (intraperitoneal) in B6D2F1 (BDF1) mice
Conditions: T/C endpoint: mean survival time, higher T/C = longer survival
Protocol: The antitumor activity of compounds was measured in mice bearing transplantable tumors. Survival or tumor size were measured and the results are expressed as the measurement made in the treated group (T) divided by the measurement made in the vehicle treated control group (C). The tumor model used in this assay is L1210 Leukemia resistant to Methotrexate; NSC 740 (intraperitoneal) in B6D2F1 (BDF1) mice

[1] = dose: 0.5 mg/kg/injection, schedule: Q01DX Z (ip), vehicle: saline
[2] = dose: 2.0 mg/kg/injection, schedule: Q01DX Z (ip), vehicle: saline
[3] = dose: 4.0 mg/kg/injection, schedule: Q01DX Z (ip), vehicle: saline
[4] = dose: 1.0 mg/kg/injection, schedule: Q01DX Z (ip), vehicle: saline
[5] = dose: 0.5 mg/kg/injection, schedule: Q01DX010 (ip), vehicle: saline
[6] = dose: 1.0 mg/kg/injection, schedule: Q01DX010 (ip), vehicle: saline
[7] = dose: 2.0 mg/kg/injection, schedule: Q01DX010 (ip), vehicle: saline

O=C(O)CN(CCCl)CCCl
T/C (dose: 0.25 mg/kg/injection, schedule: Q01DX Z (ip), vehicle: saline): 115 % of control [survivor count not shown]
T/C (dose: 0.37 mg/kg/injection, schedule: Q01DX Z (ip), vehicle: saline): 128 % of control [survivor count not shown]
T/C [1]: 120 % of control [survivor count not shown]
T/C (dose: 0.63 mg/kg/injection, schedule: Q01DX010 (ip), vehicle: saline): 177 % of control [survivor count not shown]
T/C (dose: 0.75 mg/kg/injection, schedule: Q01DX Z (ip), vehicle: saline): 133 % of control [survivor count not shown]
T/C (dose: 1.25 mg/kg/injection, schedule: Q01DX010 (ip), vehicle: saline): 243 % of control [survivor count not shown]
T/C [2]: 101 % of control [survivor count not shown]
T/C (dose: 2.5 mg/kg/injection, schedule: Q01DX010 (ip), vehicle: saline): 102 % of control [survivor count not shown]
T/C [3]: 94 % of control [survivor count not shown]
T/C (dose: 5.0 mg/kg/injection, schedule: Q01DX010 (ip), vehicle: saline): 88 % of control [survivor count not shown]

ClCCNCCCl
T/C (dose: 5.0 mg/kg/injection, schedule: Q01DX Z (ip), vehicle: saline): 121 % of control [survivor count not shown]
T/C (dose: 7.5 mg/kg/injection, schedule: Q01DX Z (ip), vehicle: saline): 133 % of control [survivor count not shown]
T/C (dose: 10.0 mg/kg/injection, schedule: Q01DX Z (ip), vehicle: saline): 141 % of control [survivor count not shown]
T/C (dose: 15.0 mg/kg/injection, schedule: Q01DX Z (ip), vehicle: saline): 141 % of control [survivor count not shown]
T/C (dose: 18.8 mg/kg/injection, schedule: Q01DX010 (ip), vehicle: saline): 142 % of control [survivor count not shown]
T/C (dose: 37.5 mg/kg/injection, schedule: Q01DX010 (ip), vehicle: saline): 131 % of control [survivor count not shown]
T/C (dose: 75.0 mg/kg/injection, schedule: Q01DX010 (ip), vehicle: saline): 91 % of control [survivor count not shown]
T/C (dose: 75.0 mg/kg/injection, schedule: Q01DX Z (ip), vehicle: saline): 90 % of control [survivor count not shown]

ClCCN(CCCl)Cc1nc2ccccc2[nH]1
T/C (dose: 0.18 mg/kg/injection, schedule: Q01DX Z (ip), vehicle: saline): 117 % of control [survivor count not shown]
T/C (dose: 0.35 mg/kg/injection, schedule: Q01DX Z (ip), vehicle: saline): 119 % of control [survivor count not shown]
T/C [1]: 119 % of control [survivor count not shown]
T/C (dose: 0.7 mg/kg/injection, schedule: Q01DX Z (ip), vehicle: saline): 128 % of control [survivor count not shown]
T/C [4]: 105 % of control [survivor count not shown]
T/C (dose: 1.4 mg/kg/injection, schedule: Q01DX Z (ip), vehicle: saline): 148 % of control [survivor count not shown]
T/C [2]: 100 % of control [survivor count not shown]
T/C [3]: 99 % of control [survivor count not shown]
T/C (dose: 5.0 mg/kg/injection, schedule: Q01DX Z (ip), vehicle: carboxymethylcellulose (CMC)): 104 % of control [survivor count not shown]
T/C (dose: 10.0 mg/kg/injection, schedule: Q01DX Z (ip), vehicle: carboxymethylcellulose (CMC)): 100 % of control [survivor count not shown]

NC(Cc1ccccc1N(CCCl)CCCl)C(=O)O (stereo not given)
T/C (dose: 0.25 mg/kg/injection, schedule: Q01DX010 (ip), vehicle: saline): 144 % of control [survivor count not shown]
T/C [5]: 148 % of control [survivor count not shown]
T/C (dose: 0.5 mg/kg/injection, schedule: Q01DX Z (ip), vehicle: methylcellulose (MC)): 134 % of control [survivor count not shown]
T/C [6]: 94 % of control [survivor count not shown]
T/C [7]: 96 % of control [survivor count not shown]

CC(C(=O)O)N(CCCl)CCCl (stereo not given)
T/C [5]: 183 % of control [survivor count not shown]
T/C [1]: 105 % of control [survivor count not shown]
T/C [6]: 218 % of control [survivor count not shown]
T/C [4]: 110 % of control [survivor count not shown]
T/C [7]: 100 % of control [survivor count not shown]
T/C [2]: 123 % of control [survivor count not shown]
T/C [3]: 105 % of control [survivor count not shown]

Reference: PubChem BioAssay AID284 (DTP/NCI, 2004)
